Numbering of substitutions follows the chain as printed. These are yes or no findings as the source states them, for the method shown. Some results given as binding are weak or reduced against the parent protein; the word gives no strength. Blank lines part the entries; values can stand above or below the binder they belong to.
Experiments:
[1] = target: T1, recombinant extracellular domain (ECD) of human prolactin receptor (PRLR), amino acids 25-234 of SEQ ID NO: 2 (human) (UniProt P16471); test: Biacore SPR
T1 sequence: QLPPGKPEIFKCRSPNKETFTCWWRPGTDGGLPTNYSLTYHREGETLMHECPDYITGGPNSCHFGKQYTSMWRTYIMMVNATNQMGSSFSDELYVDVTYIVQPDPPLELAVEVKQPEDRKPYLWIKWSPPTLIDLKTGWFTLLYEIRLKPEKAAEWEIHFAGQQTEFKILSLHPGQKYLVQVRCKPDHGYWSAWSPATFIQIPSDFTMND

[2] = target: T1, recombinant extracellular domain (ECD) of human prolactin receptor (PRLR), amino acids 25-234 of SEQ ID NO: 2 (human); test: Biacore SPR; antibody covalently immobilized on CM4 chip

binding [1]: binds
B1: he.06.275-1 (antibody, V domains shown)
VH: DVQLQESGPGLVKPSQTLSLTCTVTGYSITSDYAWNWIRQFPGKKLEWMGYISYSGSTSYNPSLKSRITISRDTSKNQFSLQLNSVTAADTATYFCARDYGYVFDYWGQGTTLTVSS
VL: DVQITQSPSSLSASPGDRITLTCRASKNIYKYLAWYQEKPGKTNNLLIYSGSTLHSGIPSRFSGSGSGTDFTLTISSLQPEDFAMYYCQQHNDYPYTFGQGTKLEIK

binding [2]: binds
binding [1]: binds
B2: he.06.642-2 (antibody, V domains shown)
VH: EVQLVESGGGLVQPGGSLRLSCAVSGFTFSSYGMSWVRQAPGKGLEWVATVSSGGTYTYYPDSVKGRFTISRDNSKNTLYLQMNSLRAEDTAVYYCARHRGNYYATYYYAMDYWGQGTLVTVSS
VL: DIVLTQSPDSLAVSLGERATINCKASKSVSTSGYTYMHWYQQKPGQPPKLLIYLASNRESGVPDRFSGSGSGTDFTLTISPVQAEDVATYYCQHSGELPPSFGQGTKLEIK

binding [1]: binds
B3: he.06.642-1 (antibody, V domains shown)
VH: B2 VH with G44R, V93M
VL: B2 VL

Reference: patent publication US20150175705A1
